Data from the primary screen of doi:10.1371/journal.pone.0140310, rounded.

Compounds and concentrations:
PF-562271, 0.08 µM: CN(c1ncccc1CNc1nc(Nc2ccc3c(c2)CC(=O)N3)ncc1C(F)(F)F)S(C)(=O)=O
VX-702, 0.4 µM: NC(=O)c1ccc(N(C(N)=O)c2c(F)cccc2F)nc1-c1ccc(F)cc1F
YM155, 0.0004 µM: COCC[n+]1c2c(n(Cc3cnccn3)c1C)C(=O)c1ccccc1C2=O
fingolimod, 2 µM: CCCCCCCCc1ccc(CCC(N)(CO)CO)cc1
enzastaurin, 0.8 µM: Cn1cc(C2=C(c3cn(C4CCN(Cc5ccccn5)CC4)c4ccccc34)C(=O)NC2=O)c2ccccc21
KU-0063794, 0.02 µM: COc1ccc(-c2ccc3c(N4CCOCC4)nc(N4C[C@@H](C)O[C@@H](C)C4)nc3n2)cc1CO
PLX4720, 0.08 µM: CCCS(=O)(=O)Nc1ccc(F)c(C(=O)c2c[nH]c3ncc(Cl)cc23)c1F
temozolomide, 2 µM: Cn1nnc2c(C(N)=O)ncn2c1=O
dasatinib, 0.004 µM: Cc1nc(Nc2ncc(C(=O)Nc3c(C)cccc3Cl)s2)cc(N2CCN(CCO)CC2)n1
palbociclib, 0.04 µM: CC(=O)c1c(C)c2cnc(Nc3ccc(N4CCNCC4)cn3)nc2n(C2CCCC2)c1=O

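Human melanoma cell lines in 1,536-well plates were treated with a pair of drugs for 72 h, then fixed, stained and imaged. Each value is the count of nuclei relative to DMSO-treated wells, in %, so that 100 equals the control. Every drug was used at one fixed concentration, the lower of two screened (a fifth of the higher). The file gives one value for each pair and line, without errors, so small differences may be noise.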 This is part of the screen, not chosen by result.

Pair	COLO 800
PF-562271 and YM155	111
temozolomide and PF-562271	88.6
KU-0063794 and palbociclib	155
temozolomide and dasatinib	119
temozolomide and VX-702	85.8
palbociclib and fingolimod	102
VX-702 and KU-0063794	89.1
temozolomide and enzastaurin	132
temozolomide and KU-0063794	93.0
PF-562271 and KU-0063794	105
VX-702 and fingolimod	58.9
PLX4720 and YM155	70.0
dasatinib and palbociclib	88.7
YM155 and palbociclib	71.3
palbociclib and enzastaurin	112
enzastaurin and PLX4720	148
KU-0063794 and YM155	83.1
KU-0063794 and dasatinib	111
palbociclib and temozolomide	80.9
dasatinib and fingolimod	58.1
fingolimod and PLX4720	90.4
temozolomide and fingolimod	57.7
dasatinib and VX-702	74.2
PF-562271 and VX-702	80.3
fingolimod and PF-562271	90.8
VX-702 and enzastaurin	87.6
fingolimod and YM155	111
PLX4720 and palbociclib	115
PLX4720 and PF-562271	78.9
KU-0063794 and fingolimod	78.1
dasatinib and PF-562271	85.1
PLX4720 and temozolomide	97.3
PF-562271 and enzastaurin	78.0
palbociclib and PF-562271	116
VX-702 and YM155	76.3
enzastaurin and fingolimod	77.7
YM155 and dasatinib	53.0
PLX4720 and dasatinib	76.3
VX-702 and PLX4720	112

Once more, the final 5:

Pair,COLO 800
VX-702 and YM155,76.3
enzastaurin and fingolimod,77.7
YM155 and dasatinib,53.0
PLX4720 and dasatinib,76.3
VX-702 and PLX4720,112